The campaign covered roughly 59,000 compounds. About 6,500 (11%) were called active. The inconclusive results got no clear call from the source; some entries with a clear call stand among them for comparison. Cut-off read from the data, not from the text of the source: active = max dye-equivalent concentration above about 10 nM; inconclusive = mostly about 1.1 nM to 9.6 nM; inactive = weaker than that.
experiment: qHTS Assay for Spectroscopic Profiling in A350 Spectral Region; settings: Compound autofluorescence, 340/450 nm, Alexa 350 dye-equivalents; stronger effect = higher value

SMILES | max dye-equivalent concentration
O=C(COC(=O)C1=COCCO1)Nc1ncc(C(F)(F)F)cc1Cl | inconclusive: 3.6 nM
COc1nnc(-c2ccc(N3CCOCC3)c(NC(C)=O)c2)c2ccccc12 | inactive
COc1cccc(-n2nnc3c(=O)n(Cc4ccc(Cl)cc4)cnc32)c1 | inconclusive: 1.4 nM
COC(=O)c1[nH]c2ccccc2c1NC(=O)CN1CCCCCC1 | inactive
CCc1ccc2[nH]c(=O)c(CN(CCN(CC)CC)C(=O)Nc3ccccc3OC)cc2c1 | inconclusive: 2.1 nM
CCC(=O)[C@@H](c1ccccc1)c1ccccn1 | inactive
COc1ccc(CN(Cc2nc3ccccc3c(=O)[nH]2)C(=O)NC2CCCCC2)cc1 | inactive
CC(NC(=O)c1ccco1)c1ccc2c(c1)OCCO2 (configuration not stated) | inactive
O=C(CSc1nnc(-c2cccnc2)n1C1CCCCC1)NC1CCCC1 | inconclusive: 1.7 nM
N#CC1=C(N)OC2=C(C(=O)CCC2)C1Cc1ccccc1 (configuration not stated) | inconclusive: 1.6 nM
CC(=O)N1CCC2(CC1)CN(C(c1ccccc1)c1ccccc1)C2 | inactive
CC(C)C[C@@H](N)C(=O)Nc1ccc2ccccc2c1 | inconclusive: 1.6 nM
CC1(C)S[C@@H]2[C@H](NC(=O)[C@H](N)c3ccccc3)C(=O)N2[C@H]1C(=O)O | active: 38 nM
COc1cc2c(C(=O)N3CCN(C)CC3)c(C)oc2cc1Br | inconclusive: 1.6 nM
CCOC(=O)C1CCN(S(=O)(=O)c2cccc(-c3cn4cccnc4n3)c2)CC1 | active: 2200 nM
O=C1Nc2ccccc2C12Nc1ccccc1-c1nc3ccccc3n12 (configuration not stated) | active: 15 nM
COc1cc(C)nc(N(C)S(=O)(=O)c2ccccc2Cl)n1 | inactive
c1cc(CNc2ccc3c(c2)OCO3)ccn1 | active: 25 nM
O=C(Cc1ccsc1)NCC(c1ccco1)N1CCCCC1 (configuration not stated) | inconclusive: 4.9 nM
COC(=O)c1ccccc1NC(=O)c1ccc(-c2ccccc2F)o1 | active: 61 nM
Cc1ccccc1C(=O)/C=C1\NC(=O)CS1 | inconclusive: 1.9 nM
O=S(=O)(Nc1cccc2cn[nH]c12)c1ccc(F)cc1 | inconclusive: 3.2 nM
CN(C)CCCNc1cc(O)c2c(c1O)C(=O)c1ccccc1C2=O | inactive

SMILES | max dye-equivalent concentration
O=c1c(-c2ccc3c(c2)OCCO3)coc2c(CN3CCOCC3)c(O)ccc12 | active: 120 nM
CCOC(=O)c1cccc(NC(=O)CS(=O)(=O)Cc2nc(-c3cccc(OC)c3)oc2C)c1 | inactive
CCC(CC)C(=O)Nc1cc(C(=O)OC)cc(C(=O)OC)c1 | inactive
N=c1nc(-c2ccccc2)ccn1O | inconclusive: 9.9 nM
O[C@@H]1[C@@H](OCc2ccccc2)OC[C@H](O)[C@@H]1O | inactive
O=C1C=C(N2CCN(c3ccccn3)CC2)C(=O)c2c(O)ccc(O)c21 | inactive
COc1ccc(/C(O)=C2/C(=O)C(=O)N(Cc3cccnc3)C2c2ccccn2)cc1 (configuration not stated) | inconclusive: 9.6 nM
O=C(Cn1c(=O)sc2ccccc21)Nc1nc2c(s1)CCCC2 | inconclusive: 1.2 nM
CCOc1ccc(-c2noc(-c3ccncc3)n2)cc1OCC | inconclusive: 1.3 nM
Cc1c(C(=O)O)oc2ccc(S(=O)(=O)NCCC3=CCCCC3)cc12 | inconclusive: 4.6 nM
O=C(Nn1c(Cc2cccs2)nc2ccccc2c1=O)c1cccs1 | inactive
CNc1ccccc1-c1nc2ccccc2n(C)c1=O | inconclusive: 1.9 nM
O=C(CSc1nnc(Cc2ccccc2)o1)NC1CC2CCC1C2 (configuration not stated) | inactive
COc1ccccc1NC(=O)CCC(=O)Nc1ccccc1OC | inactive
Cc1ccc(S(=O)(=O)NCCC(=O)NC2CCCC2)cc1 | inconclusive: 1.1 nM
CCOC(=O)c1ccc(-c2n[nH]c(=O)c3ccccc23)cc1 | inconclusive: 1.1 nM
O=C(CN1CCN(c2ccccc2)CC1)Nc1nccs1 | inactive
O=C(CSc1nnnn1-c1ccc(F)cc1)NC1CCCCC1 | inconclusive: 1.5 nM
COc1cccc(C(c2nnnn2Cc2ccc(F)cc2)N2CCC(C(N)=O)CC2)c1OC (configuration not stated) | inconclusive: 2 nM
c1ccc(COc2cccc(CN3CCN(c4ccccn4)CC3)c2)cc1 | inconclusive: 2.6 nM
CN1CCc2cc(O)c(O)cc2[C@H](c2ccccc2)C1 | inactive
Nc1nc(N2CCOCC2)nc2ccccc12 | active: 690 nM
CCCCCc1nc2sc3c(c2c(=O)n1N)CCC3 | inconclusive: 1.9 nM

SMILES | max dye-equivalent concentration
CC(C)OC(=O)CC(=O)c1sc2nc3c(cc2c1N)CN(C)CC3 | active: 13 nM
O=C(CN1C(=O)COc2ccccc21)N(Cc1ccc2c(c1)OCO2)CC1CCCO1 (configuration not stated) | inconclusive: 7.4 nM
CN(Cc1ccccc1)c1nc2c(c(=O)[nH]c(=O)n2C)n1CCOc1ccccc1 | inactive
O=C(Nc1c(F)c(F)c(F)c(F)c1F)NC1CCCCC1 | inactive
CC(C)(C)c1cnnn1-c1ccc(NC(=O)c2ccc(Br)o2)cc1 | inconclusive: 1.4 nM
COC(=O)c1ccc(CSc2ncnc3c2oc2ccccc23)o1 | inactive
CC(=O)Nc1ccc(N2CCOCC2)c(C(=O)Nc2cccc(C)c2)c1 | inconclusive: 2.5 nM
O=C(Nc1ccc2nc(-c3cccs3)c(-c3cccs3)nc2c1)N1CCOCC1 | active: 23 nM
N#Cc1nc(COc2ccc(Cl)cc2Cl)oc1N1CCN(c2ccccc2)CC1 | inconclusive: 2.5 nM
CCC(NC(C)C)C(O)c1ccc(O)c2[nH]c(=O)ccc12 (configuration not stated) | inconclusive: 6.2 nM
CC(=O)c1ccc(NC(=O)c2ccc(S(=O)(=O)N3CCCC3)cc2)cc1 | active: 85 nM
O=c1c2cc3c(cc2[nH]c(=S)n1Cc1ccco1)OCO3 | inconclusive: 4.3 nM
CCC(=O)N1c2ccc(S(=O)(=O)CCC(=O)NC3CCCC3)cc2CC1C (configuration not stated) | inconclusive: 1.7 nM
O=C(NC1CCCC1)C1CC1c1ccccc1 (configuration not stated) | inactive
CCCOc1ccc(C(C)(O)CN2CCOCC2)cc1 (configuration not stated) | inconclusive: 7.1 nM
CCOC(=O)N1CCC(NC(=O)Cn2cccc2C(=O)c2ccccc2C)CC1 | inactive
COc1ccc(Cl)cc1NC(=O)c1oc(C)nc1C | inconclusive: 3.6 nM
Fc1ccc(-c2nnc(CN3CCN(c4ncc(C(F)(F)F)cc4Cl)CC3)o2)cc1 | inconclusive: 1.2 nM
CC1(C)CC(=O)C2=C(C1)NC(=O)CC2C(=O)NCc1ccc(F)cc1 (configuration not stated) | inconclusive: 1.5 nM
CC(C)C(=O)Nc1nnc(CCc2nnc(NC(=O)C(C)C)s2)s1 | inconclusive: 1.5 nM
O=C(O)CN(CCN(CC(=O)O)CC(=O)O)CC(=O)O.[Mn] | inactive
CCOc1ccc(-c2nnc(-c3cccnc3)o2)cc1OCC | active: 12 nM
O=C(NCc1ccccc1)N1CCn2c(nc3ccccc32)C1 | inconclusive: 1.2 nM

SMILES | max dye-equivalent concentration
O=C(c1ccccc1-c1nc2ccccc2[nH]1)N1CCCCC1 | inconclusive: 1.5 nM
Cn1cnc2c1c(=O)n(Cc1c(Cl)cccc1Cl)c(=O)n2C | inconclusive: 1.1 nM
Fc1ccc(Br)cc1C1C=C(c2ccc(Br)s2)Nc2ncnn21 (configuration not stated) | inconclusive: 7.5 nM
COc1ccc(OC)c(C(=O)CC2OC(=O)c3ccccc32)c1 (configuration not stated) | inconclusive: 4.5 nM
Cc1sc2nc(SCC(=O)NCc3cccs3)[nH]c(=O)c2c1C | inconclusive: 1.4 nM
Cc1ccc2nc(NC3=NCN(Cc4ccccc4)CN3)nc(C)c2c1 | inactive
Cc1ccccc1Cc1c(C)nc2ncnn2c1C | inconclusive: 1.2 nM
O=C(NCC1CCCO1)c1c(O)c2c([nH]c1=O)CCCC2 (configuration not stated) | inactive
CN(C)C(=O)c1ccc(-c2cc(NCc3cccs3)ncn2)cc1 | inactive
CCCc1cc2c(=O)c(-c3ccccn3)coc2cc1OC | inactive
CCNC(=O)CN(c1ccc(C)cc1)S(=O)(=O)c1ccc(SC)cc1 | inconclusive: 1.1 nM
COc1ccc(OC)c(C2=NOC(C(=O)Nc3cccnc3)C2)c1 (configuration not stated) | inconclusive: 1.1 nM
CN(C)c1ccc(-c2nccc(NCCN3CCOCC3)n2)cc1 | active: 100 nM
CCOc1cc(N2CCOCC2)c(OCC)cc1NC(=O)COC(=O)c1cc(C)oc1C | inconclusive: 3.6 nM
COc1ccc(N2CCN(S(=O)(=O)c3cccs3)CC2)cc1 | inconclusive: 1.4 nM
Cn1c(Cc2cccs2)nnc1SCc1nc2ccccc2[nH]1 | inconclusive: 8.9 nM
COC(=O)c1ccccc1NC(=O)CN1CCN(C23CC4CC(CC(C4)C2)C3)CC1 | inactive
COCCn1c(=NC(=O)CSCC(=O)NC2CCCCC2)sc2cc(OC)ccc21 | inconclusive: 3.2 nM
CCOc1ccc(NC(=O)c2cccnc2C(=O)O)cc1 | inconclusive: 5.5 nM
CCC(C(=O)NCc1ccco1)N(C(=O)CNS(=O)(=O)c1ccc(C)cc1)c1ccccc1OC (configuration not stated) | inactive
Cc1cc2c(c(=O)n1Cc1cccnc1)C(c1ccccc1)C(C#N)=C(N)O2 (configuration not stated) | inactive
C[C@H]1CC[C@@H]2[C@@H](C)[C@H]3[C@H](C[C@H]4[C@@H]5CC=C6C[C@@H](O[C@]7(O[C@H]8O[C@@H](C)[C@@H](O)[C@@H](O)[C@@H]8O)C[C@@H](O[C@@H]8O[C@H](CO)[C@@H](O)[C@H](O)[C@@H]8O)[C@@H](O)[C@H](CO)O7)CC[C@]6(C)[C@H]5CC[C@@]34C)N2C1 | inactive
Cc1cc(C)nc(NC2=NCC(=O)N2c2ccc3c(c2)OCCO3)n1 | inconclusive: 2.3 nM

Ordered by number of heavy atoms (falling): part of the list above.
SMILES | max dye-equivalent concentration
COC(=O)c1ccccc1NC(=O)CN1CCN(C23CC4CC(CC(C4)C2)C3)CC1 | inactive
Cc1cc2c(c(=O)n1Cc1cccnc1)C(c1ccccc1)C(C#N)=C(N)O2 (configuration not stated) | inactive
Cn1cnc2c1c(=O)n(Cc1c(Cl)cccc1Cl)c(=O)n2C | inconclusive: 1.1 nM
